Source: PubChem BioAssay AID1053209 (Peter MacCallum Cancer Centre, 2014)
Here is an unselected part of about 1,580 reagents. 207 of them (13%) count as active. 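Rows are single siRNAs; four siRNAs per gene were tested, a gene counting as confirmed only when at least two agree.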 Unmarked entries are inactive. Reagents against one gene are numbered here. Further read-outs or replicates are left out here.

Aim: 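Gene losses that combine with doxorubicin to kill mouse bone cancer cells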 (follow-up of hits)
Cell system: mouse primary osteosarcoma cells
Knock-down reagent: single siRNA against mouse genes, 25 nM (text also states 40 nM)
Time to read-out: about 120 h (48 h before drug, then 72 h with drug)
Treatment: doxorubicin 100 nM (about IC30-40), added 48 h after transfection, for 72 h
Measurement: 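Viability measured by ATP luminescence with and without doxorubicin, each replicate scaled to non-targeting siRNA NT1, averaged over two replicates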
Reading the numbers: viability with doxorubicin, vs NT1: higher = more viable cells under doxorubicin; viability without drug, vs NT1: higher = more viable cells without drug
Hit rule: 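Counted as active (class LC dox) if viability falls to 0.7 of NT1 or below under doxorubicin but stays within 0.7 to 1.1 without drug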

| gene knocked down | siRNA no. | combined effect class | viability with doxorubicin, vs NT1 | viability without drug, vs NT1 |
| --- | --- | --- | --- | --- |
| Mmd2 (monocyte to macrophage differentiation-associated 2) | 1 | normal viability with and without drug | 1 | 1.02 |
| Mmd2 (monocyte to macrophage differentiation-associated 2) | 2 | normal viability with and without drug | 0.94 | 1.01 |
| Mmd2 (monocyte to macrophage differentiation-associated 2) | 3 | normal viability with and without drug | 0.96 | 1.05 |
| Mmd2 (monocyte to macrophage differentiation-associated 2) | 4 | normal viability with and without drug | 1.04 | 1.09 |
| Rps12 (ribosomal protein S12) | 1 | low viability with and without drug | 0.19 | 0.59 |
| Rps12 (ribosomal protein S12) | 2 | normal viability with and without drug | 0.94 | 1.03 |
| Rps12 (ribosomal protein S12) | 3 | normal viability with and without drug | 0.74 | 0.74 |
| Rps12 (ribosomal protein S12) | 4 | low viability with and without drug | 0.3 | 0.41 |
| Psma5 (proteasome subunit alpha 5) | 1 | low viability only with doxorubicin; normal without drug (active) | 0.43 | 0.84 |
| Psma5 (proteasome subunit alpha 5) | 2 | low viability with and without drug | 0.16 | 0.36 |
| Psma5 (proteasome subunit alpha 5) | 3 | low viability only with doxorubicin; normal without drug (active) | 0.69 | 0.78 |
| Psma5 (proteasome subunit alpha 5) | 4 | low viability only with doxorubicin; normal without drug (active) | 0.59 | 0.9 |
| Or9s13 (olfactory receptor family 9 subfamily S member 13) | 1 | normal viability with and without drug | 0.86 | 0.88 |
| Or9s13 (olfactory receptor family 9 subfamily S member 13) | 2 | normal viability with and without drug | 0.82 | 0.96 |
| Or9s13 (olfactory receptor family 9 subfamily S member 13) | 3 | normal viability with and without drug | 0.95 | 0.93 |
| Or9s13 (olfactory receptor family 9 subfamily S member 13) | 4 | normal viability with and without drug | 1.04 | 1.01 |
| Clptm1 (cleft lip and palate associated transmembrane protein 1) | 1 | normal viability with and without drug | 0.96 | 0.94 |
| Clptm1 (cleft lip and palate associated transmembrane protein 1) | 2 | normal viability with and without drug | 0.79 | 0.96 |
| Clptm1 (cleft lip and palate associated transmembrane protein 1) | 3 | normal viability with and without drug | 0.84 | 0.86 |
| Clptm1 (cleft lip and palate associated transmembrane protein 1) | 4 | normal viability with and without drug | 1.03 | 0.98 |
| Polr2h (polymerase (RNA) II (DNA directed) polypeptide H) | 1 | low viability with and without drug | 0.22 | 0.55 |
| Polr2h (polymerase (RNA) II (DNA directed) polypeptide H) | 2 | normal viability with and without drug | 0.76 | 0.94 |
| Polr2h (polymerase (RNA) II (DNA directed) polypeptide H) | 3 | low viability only with doxorubicin; normal without drug (active) | 0.52 | 0.74 |
| Polr2h (polymerase (RNA) II (DNA directed) polypeptide H) | 4 | normal viability with and without drug | 0.98 | 0.99 |
| Mal | 1 | normal viability with and without drug | 1.03 | 1.06 |
| Mal | 2 | normal viability with and without drug | 0.9 | 1.04 |
| Mal | 3 | normal viability with and without drug | 0.98 | 1.02 |
| Mal | 4 | normal viability with and without drug | 0.9 | 0.96 |
| Birc2 (baculoviral IAP repeat-containing 2) | 1 | normal viability with and without drug | 1.06 | 0.97 |
| Birc2 (baculoviral IAP repeat-containing 2) | 2 | normal viability with and without drug | 0.9 | 1 |
| Birc2 (baculoviral IAP repeat-containing 2) | 3 | normal viability with and without drug | 0.99 | 1.02 |
| Birc2 (baculoviral IAP repeat-containing 2) | 4 | normal viability with and without drug | 0.92 | 0.93 |
| Rps16 (ribosomal protein S16) | 1 | low viability with and without drug | 0.31 | 0.41 |
| Rps16 (ribosomal protein S16) | 2 | low viability with and without drug | 0.4 | 0.57 |
| Rps16 (ribosomal protein S16) | 3 | low viability with and without drug | 0.26 | 0.47 |
| Rps16 (ribosomal protein S16) | 4 | normal viability with and without drug | 0.8 | 0.9 |
| Mov10 (Mov10 RISC complex RNA helicase) | 1 | high viability only without drug | 1.04 | 1.12 |
| Mov10 (Mov10 RISC complex RNA helicase) | 2 | normal viability with and without drug | 0.98 | 1.04 |
| Mov10 (Mov10 RISC complex RNA helicase) | 3 | normal viability with and without drug | 0.88 | 1 |
| Mov10 (Mov10 RISC complex RNA helicase) | 4 | normal viability with and without drug | 0.97 | 1 |
| Brat1 (BRCA1-associated ATM activator 1) | 1 | normal viability with and without drug | 0.82 | 1.04 |
| Brat1 (BRCA1-associated ATM activator 1) | 2 | normal viability with and without drug | 0.79 | 1.04 |
| Brat1 (BRCA1-associated ATM activator 1) | 3 | normal viability with and without drug | 0.97 | 1.02 |
| Brat1 (BRCA1-associated ATM activator 1) | 4 | normal viability with and without drug | 0.86 | 0.99 |
| Cherp (calcium homeostasis endoplasmic reticulum protein) | 1 | normal viability with and without drug | 0.83 | 0.95 |
| Cherp (calcium homeostasis endoplasmic reticulum protein) | 2 | normal viability with and without drug | 1.08 | 1.09 |
| Cherp (calcium homeostasis endoplasmic reticulum protein) | 3 | normal viability with and without drug | 1 | 1.06 |
| Cherp (calcium homeostasis endoplasmic reticulum protein) | 4 | normal viability with and without drug | 0.94 | 0.96 |
| Med8 (mediator complex subunit 8) | 1 | low viability only with doxorubicin; normal without drug (active) | 0.58 | 0.89 |
| Med8 (mediator complex subunit 8) | 2 | normal viability with and without drug | 0.94 | 0.92 |
| Med8 (mediator complex subunit 8) | 3 | normal viability with and without drug | 0.86 | 1.01 |
| Med8 (mediator complex subunit 8) | 4 | high viability only with doxorubicin | 1.12 | 0.98 |
| Itih1 (inter-alpha trypsin inhibitor, heavy chain 1) | 1 | normal viability with and without drug | 0.82 | 0.85 |
| Itih1 (inter-alpha trypsin inhibitor, heavy chain 1) | 2 | normal viability with and without drug | 0.99 | 1.06 |
| Itih1 (inter-alpha trypsin inhibitor, heavy chain 1) | 3 | low viability only with doxorubicin; normal without drug (active) | 0.63 | 0.86 |
| Itih1 (inter-alpha trypsin inhibitor, heavy chain 1) | 4 | normal viability with and without drug | 0.98 | 1 |
| Lyrm1 (LYR motif containing 1) | 1 | high viability only with doxorubicin | 1.16 | 0.86 |
| Lyrm1 (LYR motif containing 1) | 2 | normal viability with and without drug | 0.92 | 1.06 |
| Lyrm1 (LYR motif containing 1) | 3 | normal viability with and without drug | 0.82 | 1.06 |
| Lyrm1 (LYR motif containing 1) | 4 | normal viability with and without drug | 0.92 | 1.02 |
